# Laboratory results: PubChem BioAssay AID1671195 (Yale University, 2021)
# Assay: 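Genes whose knockdown alters LDL uptake in liver cancer cells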 (primary screen)
# System: human Huh7 hepatoma cells
# Reagent: siRNA pool against human genes, 18 nM
# Duration: about 2 to 2.5 days of knockdown, then 8 h LDL uptake
# Treatment: DiI-labelled LDL at 30 µg/ml for 8 h, in lipoprotein-deficient serum medium
# Detection: 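Per-cell DiI-LDL intensity by automated imaging; well means scaled to the plate median and given as a robust z-score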
# Scale: robust z-score: higher = more LDL uptake after knockdown
# Rule for the call: 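Active when two or more replicates show a robust z-score above 2 or below -2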
# Here is one part, drawn at random, of about 22,000 deposited reagents. Of all reagents, about 1,510 (6.9%) were called active. 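Active includes knockdowns raising or lowering LDL uptake; positive z-scores mean more uptake, negative mean less.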 Unmarked entries are inactive.
Target gene,"robust z-score, replicate 1","robust z-score, replicate 2","robust z-score, replicate 3"
CARM1 (coactivator associated arginine methyltransferase 1),-0.823,-0.368,-1.15
CEP57 (centrosomal protein 57),0.563,-0.33,-0.908
EXTL3-AS1 (EXTL3 antisense RNA 1),-0.42,-0.312,-0.158
HECW2,-0.205,0.0818,0.198
ZNF221 (zinc finger protein 221),-0.052,0.327,0.491
LOC439930 (retired record),0.0648,0.128,0.0681
SH3BP1 (SH3 domain binding protein 1),0.559,0.614,0.979
P2RX3 (purinergic receptor P2X 3),-0.958,-1.19,-0.917
SRP14 (signal recognition particle 14),-2.14 (active),-1.85,-1.99
C1orf105 (chromosome 1 open reading frame 105),-0.585,-1.83,-1.44
ZMYND10 (zinc finger MYND-type containing 10),2.3,1.24,1.12
ASAH1 (N-acylsphingosine amidohydrolase 1),-0.116,0.198,0.0979
DCUN1D4 (defective in cullin neddylation 1 domain containing 4),1.1,-1.35,0.844
VENTX (VENT homeobox),2.62 (active),2.02,2.22
"PRODHLP (proline dehydrogenase like, pseudogene)",0.712,0.913,0.654
LSM14A (LSM14A mRNA processing body assembly factor),-0.757,-0.783,0.839
RPGR (retinitis pigmentosa GTPase regulator),-1.04,-0.465,-0.621
THUMPD2 (THUMP domain 2 tRNA and snRNA guanosine methyltransferase),3.26 (active),3.6,3.59
PPP1R15A (protein phosphatase 1 regulatory subunit 15A),-1.79,-1.59,-1.8
DNASE1L2 (deoxyribonuclease 1 like 2),1.36,1.74,2.21
VPS52 (VPS52 subunit of GARP complex),2.65,0.429,0.888
CCNJ (cyclin J),-0.0128,-0.485,-1
ANP32A (acidic nuclear phosphoprotein 32 family member A),-0.453,-0.37,-0.194
RBP1 (retinol binding protein 1),0.744,0.574,0.331
COL6A6 (collagen type VI alpha 6 chain),-0.573,-0.654,-1.41
GPR52 (G protein-coupled receptor 52),0.0416,0.301,0.933
TNFRSF10C (TNF receptor superfamily member 10c),1.62,1.5,1.3
KCMF1 (potassium channel modulatory factor 1),1.82,1.32,1.71
NDUFAF6 (NADH:ubiquinone oxidoreductase complex assembly factor 6),-0.169,0.236,-0.109
LOC402103 (retired record),0.118,0.706,0.916
DAAM2 (dishevelled associated activator of morphogenesis 2),-2.76 (active),-1.66,-2.16
C16orf46 (chromosome 16 open reading frame 46),0.892,0.334,0.76
TAF1B,1.48,-0.154,-0.127
EBF4 (EBF transcription factor 4),-1.04,-0.12,0.596
SLC6A16,-0.082,-0.151,-0.0554
LOC389659 (retired record),-0.0578,-0.0257,0.373
FLJ45966 (retired record),-0.0466,-0.172,0.235
SF3B1 (splicing factor 3b subunit 1),-0.0372,-0.111,1.05
LPAR2 (lysophosphatidic acid receptor 2),-0.7,-0.17,-0.814
M1AP (meiosis 1 associated protein),-0.761,0.516,-0.027
ORC4 (origin recognition complex subunit 4),2.15,0.765,0.608
CENPV (centromere protein V),-1.85,-1.95,-1.52
ASB16 (ankyrin repeat and SOCS box containing 16),1.02,1.19,1.31
"NOTUM (notum, palmitoleoyl-protein carboxylesterase)",-0.222,0.24,0.283
SLCO4C1,1.65,1.07,1.88
SLC4A5,1.94 (active),1.86,2.67
PLCXD2,-0.548,-1.28,-1.21
SAP30L (SAP30 like),0.154,0.708,0.535
GNS (glucosamine (N-acetyl)-6-sulfatase),-1.85,-1.8,-1.85
GBP4 (guanylate binding protein 4),-0.733,0.971,0.0243
PDZD4 (PDZ domain containing 4),0.122,1.37,2.63
KLK6 (kallikrein related peptidase 6),-0.372,-0.303,0.0543
ZNF414 (zinc finger protein 414),1.3,0.472,1.26
LOC389815 (retired record),0.492,0.398,1.04
LOC343052 (immunoglobulin superfamily DCC subclass member 3 pseudogene),-0.168,-0.251,0.00834
HSPA5 (heat shock protein family A (Hsp70) member 5),-0.556,-0.456,-0.167
BFSP2 (beaded filament structural protein 2),-1.63,-1.49,-2.48
NLRC4 (NLR family CARD domain containing 4),1.71,2.19,0.86
GLB1L (galactosidase beta 1 like),1.31,0.527,0.494
"PCDHGA8 (protocadherin gamma subfamily A, 8)",-0.406,-0.212,-0.199
PLBD1 (phospholipase B domain containing 1),-0.325,-0.571,-0.965
SND1-IT1 (SND1 intronic transcript 1),-0.838,-0.146,0.729
KRTAP4-5 (keratin associated protein 4-5),0.587,1.11,0.173
"BLID (BH3-like motif containing, cell death inducer)",1.98 (active),2.44,2.08
RBBP8NL (RBBP8 N-terminal like),-0.814,-0.727,-0.946
LOC387823 (retired record),-0.459,-0.359,-0.52
NCAM2 (neural cell adhesion molecule 2),-1.23,-0.131,1.4
NKX2-3 (NK2 homeobox 3),-0.178,-0.55,-0.237
HNRNPA1P56 (heterogeneous nuclear ribonucleoprotein A1 pseudogene 56),0.665,0.0136,-0.122
DISP2 (dispatched RND transporter family member 2),-0.755,-1.23,-0.965
TMPRSS4 (transmembrane serine protease 4),-1.68,-1.26,-1.8
NOPCHAP1 (NOP protein chaperone 1),0.00102,-0.111,-1.14
SEPTIN1 (septin 1),0.0338,0.691,0.904
HOXD12 (homeobox D12),0.534,0.065,0.619
SEL1L (SEL1L adaptor subunit of SYVN1 ubiquitin ligase),-0.0802,0.462,-1.21
RNASEH2C (ribonuclease H2 subunit C),2.64 (active),2.57,2.77
FEZF1 (FEZ family zinc finger 1),0.827,0.947,0.55
"GREM1 (gremlin 1, DAN family BMP antagonist)",-0.825,-0.439,-1.95
LOC339819 (retired record),-0.76,-0.53,-0.573
AKAP9 (A-kinase anchoring protein 9),-0.0976,0.88,0.0533
TSPAN1 (tetraspanin 1),1.54,1,1.31
GRIK1 (glutamate ionotropic receptor kainate type subunit 1),-0.792,-0.801,-0.657
IL25 (interleukin 25),1.95,2.22,1.84
CYSLTR2 (cysteinyl leukotriene receptor 2),0.271,0.846,-0.0882
PSG9 (pregnancy specific beta-1-glycoprotein 9),-0.141,0.339,0.706
OR51G1 (olfactory receptor family 51 subfamily G member 1),2.43 (active),1.91,2.05
LOC441622 (retired record),0.451,1.47,0.296
